In publication PMC12591160, “Polyadenylation Complex CFII Recognizes Downstream Cis‐element for Pre‐mRNA Polyadenylation Through Interaction with an RNA‐Binding Protein in Arabidopsis”:

Key:
[1] = biological target: T1, PCFS4-MYC (PCFS4 with 12× MYC, native promoter, in PCFS4-MYCres transgenic plants) (Arabidopsis thaliana) (UniProt Q0WPF2); assay: affinity purification with mass spectrometry; 12-day-old PCFS4-MYCres or FPA-MYCres plants cross-linked in 1% formaldehyde; nuclear lysate on anti-Myc magnetic beads; low-salt, high-salt (500 mM NaCl), LiCl and Tris washes; LC-MS/MS; wild-type plants as negative control
T1 sequence: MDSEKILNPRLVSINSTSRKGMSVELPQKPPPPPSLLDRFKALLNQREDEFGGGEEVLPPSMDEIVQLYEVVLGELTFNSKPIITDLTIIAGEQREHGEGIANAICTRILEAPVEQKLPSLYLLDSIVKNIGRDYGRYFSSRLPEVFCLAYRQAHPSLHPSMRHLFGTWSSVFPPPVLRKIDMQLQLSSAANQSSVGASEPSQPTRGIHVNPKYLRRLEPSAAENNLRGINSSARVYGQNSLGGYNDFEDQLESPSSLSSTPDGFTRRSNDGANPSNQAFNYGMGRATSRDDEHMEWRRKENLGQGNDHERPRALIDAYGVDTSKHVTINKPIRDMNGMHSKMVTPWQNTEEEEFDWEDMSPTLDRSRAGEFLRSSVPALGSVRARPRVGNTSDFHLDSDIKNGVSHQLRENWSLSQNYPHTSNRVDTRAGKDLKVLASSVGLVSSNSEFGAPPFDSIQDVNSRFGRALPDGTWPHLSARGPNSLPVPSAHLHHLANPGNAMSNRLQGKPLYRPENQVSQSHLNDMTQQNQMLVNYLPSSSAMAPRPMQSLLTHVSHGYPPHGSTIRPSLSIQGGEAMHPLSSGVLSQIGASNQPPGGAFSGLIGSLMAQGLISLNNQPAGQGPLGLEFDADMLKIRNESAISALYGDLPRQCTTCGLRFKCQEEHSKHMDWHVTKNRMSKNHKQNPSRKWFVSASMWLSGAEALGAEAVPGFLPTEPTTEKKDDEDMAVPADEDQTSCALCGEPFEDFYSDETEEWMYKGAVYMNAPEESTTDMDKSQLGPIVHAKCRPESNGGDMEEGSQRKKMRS

[2] = biological target: T2, FPA-MYC (FPA with 9× MYC, native promoter, in FPA-MYCres transgenic plants) (Arabidopsis thaliana) (UniProt Q8LPQ9); assay: as above
T2 sequence: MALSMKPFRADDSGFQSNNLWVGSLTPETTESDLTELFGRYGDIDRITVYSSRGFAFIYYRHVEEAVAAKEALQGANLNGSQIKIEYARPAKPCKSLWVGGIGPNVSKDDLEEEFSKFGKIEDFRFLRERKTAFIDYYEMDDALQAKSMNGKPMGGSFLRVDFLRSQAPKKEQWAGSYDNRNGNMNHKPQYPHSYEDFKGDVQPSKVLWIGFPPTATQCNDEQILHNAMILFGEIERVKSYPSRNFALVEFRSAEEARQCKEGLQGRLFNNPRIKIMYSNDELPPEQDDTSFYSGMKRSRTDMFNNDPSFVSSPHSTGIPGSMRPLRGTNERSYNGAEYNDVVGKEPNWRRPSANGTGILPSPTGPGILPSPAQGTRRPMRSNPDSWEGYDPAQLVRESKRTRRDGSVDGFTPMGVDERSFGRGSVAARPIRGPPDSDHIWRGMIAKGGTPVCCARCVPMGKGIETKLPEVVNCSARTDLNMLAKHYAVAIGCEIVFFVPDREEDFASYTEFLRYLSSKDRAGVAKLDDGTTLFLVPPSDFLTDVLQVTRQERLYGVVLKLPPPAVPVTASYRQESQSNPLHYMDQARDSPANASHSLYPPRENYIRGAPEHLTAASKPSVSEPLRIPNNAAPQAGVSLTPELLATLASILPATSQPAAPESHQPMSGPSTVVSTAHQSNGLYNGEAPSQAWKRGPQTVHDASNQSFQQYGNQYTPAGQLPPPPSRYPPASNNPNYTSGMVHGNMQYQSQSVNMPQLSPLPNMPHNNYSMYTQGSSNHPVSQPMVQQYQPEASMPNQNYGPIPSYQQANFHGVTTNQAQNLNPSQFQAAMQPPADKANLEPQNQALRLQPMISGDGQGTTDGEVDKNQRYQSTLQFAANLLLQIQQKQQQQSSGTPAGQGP

B1: FPA (endogenous, Arabidopsis plants) (protein, UniProt Q8LPQ9 1-901)
chain: T2 sequence
B1 was tested. Which binding [1] did it give?
The binding was “binds”.

B2: CLPS3 (endogenous, Arabidopsis plants) (protein, UniProt Q9SR06 1-444)
chain: MAYGGPSMNPPALSGAVPGSANLKQVKLERESELRIEVSEEPLRLRVVNGTAEIFGSELPPEIWRTFPPRMKFAVFTWYGATIEMDGVTETDYTADETPMVSYINVHAILDARRRFAKASTSNDPESSQGPRVIVVGPTDSGKSTLTKMLLSWAAKQGWRPTFVDLDVGQGSITIPGSIAAAPIEMPLDPVEGFPLDMALVYYYGHASPNMNVELYKALVKELAQVLEKQFVGNPESRAAGMVINTMGWIEGIGYELLLHAIDTFNASVVLVLGQEKLFSRLKDVLRSKSNVDVVKLHKSGGVVARVKEVRKRSRNFKIQEYFYGLSKELSPYANTSSFSDLQVFRIGGGPQAPKSALPAGSTSVSNPLRVTPVNIDDRDLLHSVLAVSYAEEPDQIISSNVSGFVYVTEVNVQKKKITYLAPSPGTLPSKLLVAGSLAWLESV
How did the binding [1] turn out when B2 was run?
Its binding is “binds”.

B3: PCFS4 (endogenous, Arabidopsis plants) (protein, UniProt Q0WPF2 1-808)
chain: T1 sequence
B3 was tested. Which binding [2] did it give?
The binding was “binds”.

Results are given in words; binding and its absence hold for the method and conditions named. In cells and extracts the contact can be indirect. These calls come from enrichment with a bait or labelling near it, and not all partners need be listed. Tags and fused reporters may be left off the sequences shown.
